Measured values taken from the supplement of paper PMC12823440, “Inhibitors supercharge kinase turnover through native proteolytic circuits” (Nature, 2025).
Counter-ions that a name gives are not always drawn. This is one part of the list. Hit calls seldom repeat between salt and free forms of one compound.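 In K562 cells expressing nanoluciferase-fused kinases, luminescence was recorded at 4 h intervals between 2 and 18 h, normalized as percent of control with DMSO at 100% and a positive control at 0%. A significant (2 sigma) signal drop marks a time point as decreased. The authors' rule for a hit is not shown and takes in more than the number of time points.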

Sequences of proteins named here, by UniProt entry; tags and fusion partners are left off. A change or cut given only in a name is not applied to a line headed by its entry.
UniProt P48729: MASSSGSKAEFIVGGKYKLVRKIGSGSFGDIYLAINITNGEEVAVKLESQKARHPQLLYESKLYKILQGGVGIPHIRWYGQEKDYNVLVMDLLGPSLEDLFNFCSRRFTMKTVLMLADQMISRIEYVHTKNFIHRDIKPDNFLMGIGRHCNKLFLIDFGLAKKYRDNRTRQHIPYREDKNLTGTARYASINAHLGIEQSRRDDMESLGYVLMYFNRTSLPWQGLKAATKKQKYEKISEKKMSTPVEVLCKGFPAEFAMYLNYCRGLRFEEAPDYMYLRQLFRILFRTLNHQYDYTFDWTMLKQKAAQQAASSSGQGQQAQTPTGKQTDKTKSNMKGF
UniProt Q08345: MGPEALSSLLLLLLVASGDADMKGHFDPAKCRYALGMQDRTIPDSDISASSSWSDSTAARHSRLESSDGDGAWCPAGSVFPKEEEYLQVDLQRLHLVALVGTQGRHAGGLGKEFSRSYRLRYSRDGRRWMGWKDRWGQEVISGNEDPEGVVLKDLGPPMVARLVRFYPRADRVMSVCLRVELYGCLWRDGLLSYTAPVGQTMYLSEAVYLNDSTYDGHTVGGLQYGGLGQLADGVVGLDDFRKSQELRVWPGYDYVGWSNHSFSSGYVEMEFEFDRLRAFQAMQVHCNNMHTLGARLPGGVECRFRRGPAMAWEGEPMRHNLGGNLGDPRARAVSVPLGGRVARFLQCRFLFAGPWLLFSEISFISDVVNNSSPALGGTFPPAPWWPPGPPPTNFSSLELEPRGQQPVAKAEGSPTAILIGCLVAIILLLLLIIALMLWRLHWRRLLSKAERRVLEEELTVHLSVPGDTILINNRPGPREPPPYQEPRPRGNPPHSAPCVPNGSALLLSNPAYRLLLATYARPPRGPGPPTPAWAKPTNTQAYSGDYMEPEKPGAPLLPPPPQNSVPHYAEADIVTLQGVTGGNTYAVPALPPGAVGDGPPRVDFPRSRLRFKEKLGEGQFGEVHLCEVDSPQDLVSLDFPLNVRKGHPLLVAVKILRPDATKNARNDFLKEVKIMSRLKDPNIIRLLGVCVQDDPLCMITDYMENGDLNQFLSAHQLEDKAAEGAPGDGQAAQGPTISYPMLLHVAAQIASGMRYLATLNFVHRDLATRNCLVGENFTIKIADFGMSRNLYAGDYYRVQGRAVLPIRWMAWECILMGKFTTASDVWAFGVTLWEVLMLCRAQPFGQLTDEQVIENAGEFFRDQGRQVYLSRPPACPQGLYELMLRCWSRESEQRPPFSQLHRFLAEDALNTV
UniProt Q9Y463, whole entry, looked up: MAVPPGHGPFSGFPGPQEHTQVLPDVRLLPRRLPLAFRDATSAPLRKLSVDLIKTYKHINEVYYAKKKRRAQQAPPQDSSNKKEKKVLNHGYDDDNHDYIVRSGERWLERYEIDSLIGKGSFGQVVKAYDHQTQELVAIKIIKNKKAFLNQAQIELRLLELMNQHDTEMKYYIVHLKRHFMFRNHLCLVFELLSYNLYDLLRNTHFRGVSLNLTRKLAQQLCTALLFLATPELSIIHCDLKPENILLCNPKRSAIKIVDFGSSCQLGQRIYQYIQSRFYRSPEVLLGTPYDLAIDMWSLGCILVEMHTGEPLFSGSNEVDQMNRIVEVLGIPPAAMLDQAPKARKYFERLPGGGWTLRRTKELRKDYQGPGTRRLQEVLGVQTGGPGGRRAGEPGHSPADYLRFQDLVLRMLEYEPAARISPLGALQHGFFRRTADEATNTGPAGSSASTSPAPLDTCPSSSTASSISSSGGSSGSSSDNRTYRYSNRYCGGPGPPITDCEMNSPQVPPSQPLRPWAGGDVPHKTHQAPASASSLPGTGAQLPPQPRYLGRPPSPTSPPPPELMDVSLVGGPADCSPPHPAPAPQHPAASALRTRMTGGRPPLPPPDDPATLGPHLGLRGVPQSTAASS
UniProt Q92630: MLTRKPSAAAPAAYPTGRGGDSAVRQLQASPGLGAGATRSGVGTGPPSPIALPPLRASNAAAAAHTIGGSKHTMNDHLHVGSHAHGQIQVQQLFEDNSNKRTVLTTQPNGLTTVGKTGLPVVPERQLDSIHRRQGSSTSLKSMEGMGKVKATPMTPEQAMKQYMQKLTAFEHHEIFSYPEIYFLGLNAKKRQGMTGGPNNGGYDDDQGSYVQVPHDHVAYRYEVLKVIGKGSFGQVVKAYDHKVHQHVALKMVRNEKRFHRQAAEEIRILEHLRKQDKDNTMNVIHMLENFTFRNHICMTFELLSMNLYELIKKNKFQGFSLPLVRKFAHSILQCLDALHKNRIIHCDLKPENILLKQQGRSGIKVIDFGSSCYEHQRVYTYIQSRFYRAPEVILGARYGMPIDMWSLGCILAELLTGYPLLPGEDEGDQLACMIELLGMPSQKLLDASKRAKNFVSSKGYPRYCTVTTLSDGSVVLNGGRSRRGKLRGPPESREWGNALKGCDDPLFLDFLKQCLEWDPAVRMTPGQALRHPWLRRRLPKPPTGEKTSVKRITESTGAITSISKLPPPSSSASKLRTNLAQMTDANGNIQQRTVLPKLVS
UniProt P21860, whole entry: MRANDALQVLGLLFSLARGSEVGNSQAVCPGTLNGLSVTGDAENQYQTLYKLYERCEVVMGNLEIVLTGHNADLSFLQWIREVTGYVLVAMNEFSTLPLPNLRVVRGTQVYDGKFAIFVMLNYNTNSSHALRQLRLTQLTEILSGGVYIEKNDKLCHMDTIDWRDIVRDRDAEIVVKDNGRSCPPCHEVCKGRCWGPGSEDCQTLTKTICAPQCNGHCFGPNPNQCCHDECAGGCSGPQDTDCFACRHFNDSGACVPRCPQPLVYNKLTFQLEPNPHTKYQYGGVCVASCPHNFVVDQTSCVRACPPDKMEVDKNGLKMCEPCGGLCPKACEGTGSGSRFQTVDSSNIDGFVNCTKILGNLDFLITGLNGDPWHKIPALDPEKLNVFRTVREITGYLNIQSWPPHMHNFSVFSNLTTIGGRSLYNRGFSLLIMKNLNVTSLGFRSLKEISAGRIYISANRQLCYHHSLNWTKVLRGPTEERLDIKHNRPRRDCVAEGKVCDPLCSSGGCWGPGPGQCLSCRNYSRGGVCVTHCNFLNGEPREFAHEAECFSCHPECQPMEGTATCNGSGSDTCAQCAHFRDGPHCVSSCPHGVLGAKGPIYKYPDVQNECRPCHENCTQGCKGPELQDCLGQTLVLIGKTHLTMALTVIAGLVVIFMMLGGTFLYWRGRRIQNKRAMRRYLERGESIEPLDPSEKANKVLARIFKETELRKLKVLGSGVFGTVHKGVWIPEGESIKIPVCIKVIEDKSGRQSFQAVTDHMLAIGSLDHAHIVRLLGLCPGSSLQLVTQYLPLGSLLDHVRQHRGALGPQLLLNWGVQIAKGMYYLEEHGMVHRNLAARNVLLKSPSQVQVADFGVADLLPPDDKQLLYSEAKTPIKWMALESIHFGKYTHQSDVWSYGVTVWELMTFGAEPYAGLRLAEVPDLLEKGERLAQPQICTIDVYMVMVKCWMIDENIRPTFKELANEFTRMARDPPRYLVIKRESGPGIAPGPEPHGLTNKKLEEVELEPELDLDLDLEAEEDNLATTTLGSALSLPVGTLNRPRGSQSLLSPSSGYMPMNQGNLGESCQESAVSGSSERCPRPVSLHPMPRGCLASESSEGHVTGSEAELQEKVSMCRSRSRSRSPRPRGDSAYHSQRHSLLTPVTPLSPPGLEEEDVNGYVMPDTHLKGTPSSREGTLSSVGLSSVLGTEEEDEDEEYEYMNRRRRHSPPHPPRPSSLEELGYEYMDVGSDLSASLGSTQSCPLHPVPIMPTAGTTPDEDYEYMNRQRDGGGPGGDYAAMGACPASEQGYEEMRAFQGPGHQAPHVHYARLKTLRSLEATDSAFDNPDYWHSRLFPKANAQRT
UniProt O75460: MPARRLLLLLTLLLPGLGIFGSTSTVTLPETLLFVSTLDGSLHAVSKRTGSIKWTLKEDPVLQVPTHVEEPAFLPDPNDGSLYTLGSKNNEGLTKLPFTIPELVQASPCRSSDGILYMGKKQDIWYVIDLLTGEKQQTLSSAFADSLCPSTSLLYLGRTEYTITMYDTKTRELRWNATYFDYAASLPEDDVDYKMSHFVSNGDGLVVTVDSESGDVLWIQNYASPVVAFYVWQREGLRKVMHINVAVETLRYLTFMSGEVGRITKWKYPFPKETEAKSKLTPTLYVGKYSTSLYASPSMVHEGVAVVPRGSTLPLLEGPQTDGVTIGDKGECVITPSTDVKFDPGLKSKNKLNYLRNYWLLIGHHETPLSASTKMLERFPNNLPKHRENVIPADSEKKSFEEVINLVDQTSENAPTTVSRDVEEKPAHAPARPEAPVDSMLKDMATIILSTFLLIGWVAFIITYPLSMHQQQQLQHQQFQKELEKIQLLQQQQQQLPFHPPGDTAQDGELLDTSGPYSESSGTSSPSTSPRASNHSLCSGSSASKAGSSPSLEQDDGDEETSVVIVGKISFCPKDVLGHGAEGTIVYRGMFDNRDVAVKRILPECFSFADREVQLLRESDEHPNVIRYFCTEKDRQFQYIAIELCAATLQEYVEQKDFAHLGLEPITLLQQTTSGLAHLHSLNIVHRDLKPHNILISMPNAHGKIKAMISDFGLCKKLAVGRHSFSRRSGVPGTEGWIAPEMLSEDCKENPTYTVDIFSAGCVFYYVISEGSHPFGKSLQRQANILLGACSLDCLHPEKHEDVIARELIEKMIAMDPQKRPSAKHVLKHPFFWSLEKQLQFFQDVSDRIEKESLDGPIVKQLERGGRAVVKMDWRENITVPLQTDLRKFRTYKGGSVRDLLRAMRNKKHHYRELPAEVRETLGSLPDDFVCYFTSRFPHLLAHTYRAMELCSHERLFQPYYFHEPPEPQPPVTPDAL
UniProt P11362, whole entry, looked up: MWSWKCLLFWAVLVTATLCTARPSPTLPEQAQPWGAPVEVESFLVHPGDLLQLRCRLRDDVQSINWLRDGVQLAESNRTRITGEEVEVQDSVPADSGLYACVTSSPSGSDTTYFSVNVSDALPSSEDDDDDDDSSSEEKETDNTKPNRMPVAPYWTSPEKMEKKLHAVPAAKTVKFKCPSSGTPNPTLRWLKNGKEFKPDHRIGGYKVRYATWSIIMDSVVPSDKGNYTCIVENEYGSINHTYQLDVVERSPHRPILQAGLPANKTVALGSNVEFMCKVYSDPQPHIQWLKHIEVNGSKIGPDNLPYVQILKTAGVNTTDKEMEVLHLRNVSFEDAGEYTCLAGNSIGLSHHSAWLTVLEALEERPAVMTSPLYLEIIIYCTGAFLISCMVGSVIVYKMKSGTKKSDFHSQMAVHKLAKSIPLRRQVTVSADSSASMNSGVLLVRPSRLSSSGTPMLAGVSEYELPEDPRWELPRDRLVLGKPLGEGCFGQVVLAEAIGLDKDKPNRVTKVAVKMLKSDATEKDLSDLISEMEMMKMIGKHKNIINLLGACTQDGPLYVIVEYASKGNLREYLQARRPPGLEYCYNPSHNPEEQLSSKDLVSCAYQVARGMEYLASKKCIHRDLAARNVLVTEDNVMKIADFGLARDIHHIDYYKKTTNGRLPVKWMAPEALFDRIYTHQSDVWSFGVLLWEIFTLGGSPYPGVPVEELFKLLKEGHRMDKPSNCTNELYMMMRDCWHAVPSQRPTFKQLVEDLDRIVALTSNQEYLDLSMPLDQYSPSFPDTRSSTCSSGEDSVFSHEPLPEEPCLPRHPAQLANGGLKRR
UniProt P22607, whole entry, looked up: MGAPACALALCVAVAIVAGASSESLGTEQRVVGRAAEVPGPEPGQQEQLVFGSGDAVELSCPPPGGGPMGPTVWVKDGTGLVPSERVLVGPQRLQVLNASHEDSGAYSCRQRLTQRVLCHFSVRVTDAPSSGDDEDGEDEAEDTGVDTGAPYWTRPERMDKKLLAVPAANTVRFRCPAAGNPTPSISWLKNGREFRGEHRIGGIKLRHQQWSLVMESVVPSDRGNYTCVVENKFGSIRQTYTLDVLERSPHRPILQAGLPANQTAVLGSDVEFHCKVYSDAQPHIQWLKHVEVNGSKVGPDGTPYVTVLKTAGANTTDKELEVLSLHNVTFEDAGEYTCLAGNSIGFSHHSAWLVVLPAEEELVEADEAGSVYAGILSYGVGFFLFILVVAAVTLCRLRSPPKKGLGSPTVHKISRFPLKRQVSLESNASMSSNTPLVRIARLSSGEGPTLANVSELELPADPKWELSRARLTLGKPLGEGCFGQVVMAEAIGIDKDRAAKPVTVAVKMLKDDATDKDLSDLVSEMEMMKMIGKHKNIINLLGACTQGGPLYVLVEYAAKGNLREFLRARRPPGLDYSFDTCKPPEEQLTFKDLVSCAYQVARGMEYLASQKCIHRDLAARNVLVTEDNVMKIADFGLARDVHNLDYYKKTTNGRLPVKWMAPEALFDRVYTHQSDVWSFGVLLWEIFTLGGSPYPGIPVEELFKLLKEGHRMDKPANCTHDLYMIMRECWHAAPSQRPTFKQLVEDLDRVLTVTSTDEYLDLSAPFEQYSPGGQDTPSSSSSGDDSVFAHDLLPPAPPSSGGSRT

Columns and labels:
Test in all cases: number of time points (of 5) at which kinase-Nluc abundance scored as decreased, DMSO-normalised (count); higher = more persistent destabilization
Details in all cases: K562; 2-18 h
CSNK1A1 = CSNK1A1 (UniProt P48729)
CSNK1D = CSNK1D (UniProt P48730)
DDR1 = DDR1 (UniProt Q08345)
DYRK1B = DYRK1B (UniProt Q9Y463)
DYRK2 = DYRK2 (UniProt Q92630)
EGFR = EGFR (UniProt P00533)
EGFR_G719S = EGFR_G719S (UniProt P00533)
EGFR_G719S_T790M = EGFR_G719S_T790M (UniProt P00533)
EGFR_L718V = EGFR_L718V (UniProt P00533)
EGFR_L858R = EGFR_L858R (UniProt P00533)
EGFR_L861Q = EGFR_L861Q (UniProt P00533)
EGFR_T790M = EGFR_T790M (UniProt P00533)
EPHA2 = EPHA2 (UniProt P29317)
ERBB3 = ERBB3 (UniProt P21860)
[1] = biological target: ERBB4_R711C (clone: ERBB4_mut) (UniProt Q15303)
ERN1 = ERN1 (UniProt O75460)
FGFR1 = FGFR1 (UniProt P11362)
FGFR2 = FGFR2 (UniProt P21802)
FGFR3 = FGFR3 (UniProt P22607)
FGR = FGR (UniProt P09769)

Measured: number of time points

CC(=O)NCC(=O)N[C@@H](C)C(=O)N[C@@H](CCC(N)=O)C(=O)N[C@@H](Cc1ccccc1)C(=O)N[C@@H](CO)C(=O)N[C@@H](CCCCN)C(=O)N[C@H](C(=O)N[C@@H](C)C(=O)N[C@@H](C)C(=O)N[C@@H](CCCCN)C(=O)O)[C@@H](C)O (10 µM)
0: all assays above

CS(=O)(=O)N1CCN(Cc2cn3cc(-c4cnc(N)nc4)nc(N4CCOCC4)c3n2)CC1 (10 µM)
3: EGFR_G719S
1: DDR1
0: all other assays above

CC[C@@H]1CN(C(=O)NCC(F)(F)F)C[C@@H]1c1cnc2cnc3[nH]ccc3n12 [Upadacitinib] (10 µM)
0: all assays above

C=CC(=O)Nc1cccc(Oc2nc(Nc3ccc(N4CCN(C)CC4)cc3)nc3ccsc23)c1 [Olmutinib] (2.5 µM)
0: all assays above

COc1cc(OC)c(/C=C/S(=O)(=O)Cc2ccc(OC)c(NCC(=O)O)c2)c(OC)c1 [Rigosertib (sodium)] (10 µM)
1: EGFR_G719S_T790M | EGFR_L858R | FGFR1
2: DDR1 | DYRK2 | EGFR_L861Q | ERBB3 | [1]
3: FGFR2
0: all other assays above

Cc1c(C(=O)Nc2ccc(Oc3ccnc4cc(OCC(C)(C)O)ccc34)c(F)c2)c(=O)n(-c2ccccc2)n1C [Ningetinib Tosylate] (10 µM)
2: EGFR_G719S | ERBB3 | FGFR2
3: CSNK1A1 | DYRK2
1: CSNK1D | DDR1 | EGFR | [1] | FGFR1
0: all other assays above

CC(C)(O)c1cc2nc(-c3cnc(N)nc3)nc(N3CCOCC3)c2s1 (2.5 µM)
2: EGFR_L861Q | [1] | FGFR1 | FGR
1: CSNK1D | DYRK1B | EGFR_G719S | ERN1
4: DDR1 | DYRK2 | FGFR2 | FGFR3
0: all other assays above

O=c1ccc2cc(O)c(O)cc2o1 [Esculetin] (10 µM)
0: all assays above

OCCC#Cc1nc(-c2ccc(F)cc2)c(-c2ccncc2)n1CCCc1ccccc1 (2.5 µM)
0: all assays above

C[C@@H]1CN(Cc2cn[nH]c2-c2ccc(C#N)cc2)CCN1c1ccc(C(F)(F)F)cn1 (2.5 µM)
0: all assays above

O=C(CC(c1ccccc1)C(C(=O)O)C(=O)O)c1ccc(C(F)(F)F)cc1 (stereo not given) (10 µM)
0: all assays above

CCS(=O)(=O)c1ccc(Oc2cc(O[C@@H](C)CO)cc(C(=O)Nc3ccn(C)n3)c2)cn1 (10 µM)
0: all assays above

Cc1ccc(-c2csc(Cn3nc(CC4OCCCO4)c4ccccc4c3=O)n2)cc1 (10 µM)
1: FGFR1
0: all other assays above

COc1ccc(COc2cc3oc(=O)c4cc(C(C)O)ccc4c3cc2OC)cc1 (stereo not given) [Palomid 529] (2.5 µM)
0: all assays above

COc1ncc2cc(C(=O)Nc3cc(C(=O)NCc4cccc(Cl)c4)ccc3Cl)c(=O)[nH]c2n1 (2.5 µM)
0: all assays above

COC(=O)[C@]1(C)CC[C@]2(C(=O)O[C@@H]3O[C@H](CO)[C@@H](O)[C@H](O)[C@H]3O)CC[C@]3(C)C(=CC[C@@H]4[C@@]5(C)C[C@H](O)[C@H](O[C@@H]6OC[C@@H](O[C@@H]7O[C@H](CO)[C@@H](O)[C@H](O)[C@H]7O)[C@H](O)[C@H]6O)[C@@](C)(CO)C5CC[C@]43C)[C@H]2C1 (stereo not given in full) [Esculentoside H] (10 µM)
0: all assays above

C[C@@H]1CN(CC(=O)Nc2ccc3c(c2)Cc2cccc(-c4cc(=O)cc(N5CCOCC5)o4)c2S3)C[C@H](C)O1 (2.5 µM)
0: all assays above

CCOC(=O)C1=C[C@]2(CC)CCCN3CCc4c(n1c1ccccc41)[C@@H]32 [Vinpocetine] (10 µM)
0: all assays above

CCCC[C@H](CO)Nc1nc(NC)ncc1OC [Interferon receptor inducer-1] (10 µM)
0: all assays above

CC(C)=C/C=C1\O[C@@H]2CC(C)=CC(=O)[C@@H]2[C@]1(C)O [Bisabolangelone] (10 µM)
0: all assays above

Three entries out of the list, arranged by length of the SMILES, largest number first:
CCOC(=O)C1=C[C@]2(CC)CCCN3CCc4c(n1c1ccccc41)[C@@H]32 [Vinpocetine] (10 µM)
0: all assays above

CC(C)(O)c1cc2nc(-c3cnc(N)nc3)nc(N3CCOCC3)c2s1 (2.5 µM)
2: EGFR_L861Q | [1] | FGFR1 | FGR
1: CSNK1D | DYRK1B | EGFR_G719S | ERN1
4: DDR1 | DYRK2 | FGFR2 | FGFR3
0: all other assays above

O=c1ccc2cc(O)c(O)cc2o1 [Esculetin] (10 µM)
0: all assays above

(continued)

Cc1cc(/C=C2\CC/C(=C\c3cc(C)c(O)c(C)c3)C2=O)cc(C)c1O [Pentagamavunon-1] (2.5 µM)
1: EGFR_L861Q
0: all other assays above

O=C1C(=Cc2ccc(O)c(O)c2)Oc2ccccc21 (2.5 µM)
0: all assays above

CC(=O)c1cc(O)ccc1O [2,5-Dihydroxyacetophenone] (10 µM)
0: all assays above

CN1CCN(c2ccc(NC(=O)c3ccc(C#N)o3)c(N3CCCCC3)c2)CC1 (10 µM)
0: all assays above

CNC(=O)c1nnc(NC(=O)C2CC2)cc1Nc1cccc(-c2ncn(C)n2)c1OC [Deucravacitinib] (10 µM)
1: ERBB3
0: all other assays above

Cc1ccc(CNC(=O)N2CCC[C@]3(CCN(Cc4ccc(Cl)c(Cl)c4)C3)C2)cc1 (10 µM)
0: all assays above

O=c1[nH]nc(Sc2ncc([N+](=O)[O-])s2)n1-c1ccc2c(c1)OCCO2 (2.5 µM)
0: all assays above

O=C(Nc1nccs1)C(c1cc(F)ccc1O)N1Cc2ccc(-c3ccc(N4CCNCC4)cc3)cc2C1=O (racemic) (10 µM)
3: FGFR1
1: DDR1 | FGFR2
0: all other assays above

Nc1nc2c(ncn2COCCO)c(=O)[nH]1 [Acyclovir] (10 µM)
0: all assays above

CNC(=O)c1ccc(-c2cnc3ncc(Cc4ccc5ncccc5c4)n3n2)cc1F [Capmatinib] (10 µM)
0: all assays above

COc1cc(-c2cc(-c3cccc(O)c3)cnc2N)cc(OC)c1OC (2.5 µM)
1: DDR1 | FGFR2
3: DYRK2
2: ERBB3 | [1]
0: all other assays above

Nc1n[nH]c(N)c1N=Nc1ccc(O)cc1 (10 µM)
0: all assays above

CN(C)CCCNc1ccn2ncc(-c3ccc4c(c3)OCO4)c2n1 (10 µM)
0: all assays above

Cc1cc([N+](=O)[O-])c(NS(=O)(=O)c2cccc(C(=O)O)c2)cc1-c1cccnc1 [Alofanib] (10 µM)
0: all assays above

C[C@@H]1CC[C@]2(C(=O)O)CC[C@]3(C)C(=CC[C@@H]4[C@@]5(C)CC[C@H](O)[C@@](C)(CO)[C@@H]5CC[C@]43C)[C@@H]2[C@]1(C)O [Rotundic acid] (10 µM)
0: all assays above

COc1cccc(Nc2ncnn3ccc(CN4CC[C@@H](N)[C@H](O)C4)c23)c1 (2.5 µM)
3: DYRK2 | ERBB3 | [1]
2: EGFR_G719S | FGFR2
1: DDR1 | EGFR_L861Q
0: all other assays above

CCCCCC1CC1CC1CC1CCCCCCCC(=O)O (stereo not given) (10 µM)
0: all assays above

Cn1cc(-c2cn3nccc3c(-c3cnn([C@]4(CC#N)C[C@@H](C#N)C4)c3)n2)cn1 (10 µM)
0: all assays above

COC[C@H]1Cn2cc(-c3nc(Nc4ccnn4C)ncc3C)nc2C(=O)N1Cc1ccc(F)c(F)c1 (10 µM)
0: all assays above

O=c1sn(-c2cccc3ccccc23)c(=O)n1Cc1ccccc1 [Tideglusib] (10 µM)
0: all assays above

Cn1c(=O)c(Oc2ccc(F)cc2F)cc2cnc(NC(CCO)CCO)nc21 [Pamapimod] (10 µM)
0: all assays above

C=CC(=O)Nc1cc(C(=O)NC)cc(-c2n[nH]c3ccccc23)c1 (10 µM)
2: [1]
0: all other assays above

Cc1nc(NC(=O)N2CCC[C@H]2C(N)=O)sc1-c1csc(C(C)(C)C)n1 (10 µM)
0: all assays above

O=C(NCc1cccc(O)c1)c1cc2cc(F)ccc2[nH]1 (10 µM)
0: all assays above

CCc1nc(C(N)=O)c(Nc2ccc(N3CCC(N4CCN(C)CC4)CC3)c(OC)c2)nc1NC1CCC(OC)CC1 (stereo not given) [EML4-ALK kinase inhibitor 1] (2.5 µM)
1: EPHA2
0: all other assays above

O=C1NCCSc2c1sc1ccc(O)cc21 (2.5 µM)
1: FGFR2
0: all other assays above

Cc1ncc(F)c(Nc2n[nH]c3c2CN(C(=O)N2C[C@@H](C)N(CC4CCOCC4)C[C@@H]2C)C3(C)C)n1 (10 µM)
0: all assays above

CC(C)(C)NS(=O)(=O)c1cncc(-c2cc(F)c3nc(N)nn3c2)c1 (10 µM)
0: all assays above
